{"source": "patent USRE46830", "about": "(dated 2018)", "key": {"[1]": {"assay": "general procedure: Fmoc solid-phase peptide synthesis; 2-CTC"}, "[2]": {"assay": "general procedure: Fmoc solid-phase peptide synthesis; Wang resin", "settings": "whole synthesis"}}, "data": [{"substance": "NH2-D-Phe-Pro-Arg-Pro-Gly-Gly-Gly-Gly-Asn-Gly-Asp-Phe-Glu-Glu-Ile-Pro-Glu-Glu-Tyr-Leu-OH", "values": [{"measurement": "crude HPLC purity", "setting": "[1]; late stage modification step, HPLC and LC-MS", "result": "about 55% purity"}, {"measurement": "crude yield", "setting": "[1]; whole synthesis, jointly over steps 2 and 3 (cleavage and global deprotection)", "result": "about 55%"}, {"measurement": "difficulty met", "setting": "[2]", "result": "1-10% of the peptide product proved alkylated in case of Wang resin"}]}]}
